Not every detail of the peptide structures is certain; ends, links or a residue may be inferred. Square brackets hold non-standard residues; d marks the D form. Peptide text beside a SMILES is read from it.
Tested on: Escherichia coli (ESBL)
Experiment: Antibiotic effect in E. coli ESBL-induced sepsis animal model (Example 9)
Assay type: in vivo, ICR mice
Settings: intraperitoneal

## CC(C)C[C@@H](NC(=O)[C@H](N)CCCCN)C(=O)N[C@H](CCCNC(=N)N)C(=O)N[C@@H](C(=O)N[C@H](CCCCN)C(=O)N[C@H](CC(C)C)C(=O)N[C@H](CCCNC(=N)N)C(=O)N[C@H](CCCNC(=N)N)C(=O)N[C@H](Cc1ccc(O)cc1)C(=O)N[C@H](CC(C)C)C(=O)N[C@H](CCCNC(=N)N)C(N)=O)C(C)C [allD FP13-NH2 (AcOH)] (H-[dK][dL][dR][dV][dK][dL][dR][dR][dY][dL][dR]-NH2; N-terminus assumed)
  ED50: approximately 1 mpk (mg/kg)
